Test results as given in patent US8173668B1, “Use of non-peptidic bradykinin receptor agonists to treat ocular hypertension and glaucoma” (Alcon Research, Ltd., priority 2007, dated 2012).
Some entries of the source have several records that differ or are many. This is not the full list of results. The source may hold further records. The records of an entry seem to repeat one measurement on other runs, samples or individuals.

The chains behind the UniProt entries cited, without tags or fusion partners.
UniProt P30411, whole entry: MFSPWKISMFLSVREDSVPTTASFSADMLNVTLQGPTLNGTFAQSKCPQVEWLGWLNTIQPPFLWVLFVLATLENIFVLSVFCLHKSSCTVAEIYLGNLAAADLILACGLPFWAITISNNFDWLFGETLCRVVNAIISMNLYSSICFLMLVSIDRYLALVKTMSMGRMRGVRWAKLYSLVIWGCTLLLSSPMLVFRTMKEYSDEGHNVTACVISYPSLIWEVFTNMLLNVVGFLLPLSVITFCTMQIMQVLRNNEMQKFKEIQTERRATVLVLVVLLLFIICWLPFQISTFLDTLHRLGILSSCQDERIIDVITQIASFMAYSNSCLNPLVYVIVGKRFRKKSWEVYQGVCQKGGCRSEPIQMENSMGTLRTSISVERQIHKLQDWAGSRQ

Target: BK B2-Receptor in h-TM cells (Homo sapiens, UniProt P30411)
Experiment: Antagonism of FR-190997-induced [Ca2+]i mobilization in h-TM cells
Format: cell-based
Conditions: read-out: Antagonist Potency (Ki), FR-190997 as the agonist

SMILES	Ki
Cc1nc2c(OCc3c(Cl)ccc(N(C)C(=O)CNC(=O)/C=C/c4ccc(C(=O)N(C)C)cc4)c3Cl)cccn2c1Br [FR-167344]	68 nM and 349 nM
CC(=O)Nc1ccc(/C=C/C(=O)NCC(=O)N(C)c2ccc(Cl)c(COc3cccc4ccc(C)nc34)c2Cl)cn1 [FR-173657]	110 nM and 317 nM
